According to US5990179A, “Composition and method of enhancing electrotransport agent delivery” (ALZA Corporation, priority 1995, dated 1999):

Details: pH 7

Structure (SMILES): CCN(CC)CC(=O)Nc1c(C)cccc1C [lidocaine]
- pH of the donor formulation above which lidocaine exhibits enhanced transdermal electrotransport flux: above 7
